# The supplement of paper PMC3334620
# Whole data set: some 33,000 sequences, median “E-score (-0.5 to 0.5)” near -0.0014, cut for the highest 2% near 0.25. This is one part of the list.
# Target: T1, Cad1 (UniProt P24813)
# T1 sequence: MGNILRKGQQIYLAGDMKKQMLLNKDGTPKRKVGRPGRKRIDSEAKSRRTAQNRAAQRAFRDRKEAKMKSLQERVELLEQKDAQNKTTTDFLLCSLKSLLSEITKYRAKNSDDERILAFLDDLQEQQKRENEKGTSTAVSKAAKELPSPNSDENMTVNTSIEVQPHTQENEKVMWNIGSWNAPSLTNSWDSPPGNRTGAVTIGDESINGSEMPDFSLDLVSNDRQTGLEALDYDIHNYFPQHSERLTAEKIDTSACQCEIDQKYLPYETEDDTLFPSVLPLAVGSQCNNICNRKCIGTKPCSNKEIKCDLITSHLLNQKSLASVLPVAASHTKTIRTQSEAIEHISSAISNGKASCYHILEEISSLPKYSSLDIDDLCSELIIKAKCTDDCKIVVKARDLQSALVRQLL
# Test: PBM E-score (8-mer binding enrichment) (E-score (-0.5 to 0.5)); higher = stronger / more preferred TF binding
# Conditions: protein concentration: 100 nM; construct: GST-full length
# Summary of the method: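 Universal all-10-mer Agilent arrays, fresh or stripped once, were converted to double-stranded form by primer extension. GST-tagged yeast transcription factors from PURExpress in vitro transcription/translation, full-length or DNA-binding domain only, were applied at about 100-200 nM and detected with fluorescent anti-GST. After masliner normalisation, the Universal PBM Analysis Suite scored each ungapped eight-base word together with its reverse complement by E-score.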
row,Sequence,PBM E-score
1,AGTAACGC,-0.0372
2,ATTAGCTG,0.102
3,AAGGCCTG,-0.0264
4,AGCGAATG,-0.13
5,ACCATACG,-0.054
6,AGCGGGGC,-0.0957
7,GGTTTACA,-0.0383
8,ATCCAAAA,0.194
9,GCTTCAGA,-0.0942
10,CCATAAGA,-0.0777
11,GAACTAGC,-0.0799
12,CTCATGAG,0.175
13,CATTAAAG,0.145
14,CGCCGGCG,0.301
15,CGCTAGAC,-0.117
16,CTTAAAAC,0.108
17,AATCGGGT,0.19
18,ACAACACC,0.153
19,GAAGTACC,0.0529
20,GTCTCGCA,-0.0655
21,GAAATAGA,0.0442
22,GGCCCCCC,-0.399
23,CAGTCGTA,-0.162
24,GTTCGCAA,0.19
25,AATATCAG,0.18

row,Sequence,PBM E-score
1,ACTATAGT,0.293
2,CTGCGGGC,-0.0688
3,CTGCGGCC,-0.0204
4,ACATAGGC,-0.129
5,CTTCTACC,-0.142
6,CCGATGTA,-0.131
7,ATAGCCAC,0.0315
8,TATAGAAA,-0.0962
9,AAAGTACC,-0.0128
10,CCTCCGCG,-0.128
11,AGACCGTC,-0.153
12,AGTCAGTG,-0.0342
13,AGGAAACC,0.0272
14,ACACGGGG,-0.071
15,GACGGAAA,0.195
16,CTTGCCCA,-0.0602
17,CCGTAAAA,0.0221
18,GGGTAAAA,0.15
19,AAATTTCG,0.232
20,AGCAGCCT,-0.0994
21,CTCTTACC,0.112
22,TCGTCTCA,0.0202
23,GCATTCGA,0.14
24,CAGCAAAA,0.098
25,CCCCCGCG,-0.264

row,Sequence,PBM E-score
1,CTCCTCTA,-0.193
2,CACCAACG,0.055
3,AAAGCTAC,-0.187
4,CAGTAAAG,-0.124
5,GGACGACA,0.227
6,GGTAGTGA,-0.0646
7,CGCAGAAA,0.106
8,AACGTTTC,0.0428
9,ATACTACA,0.264
10,AACTTAAA,0.118
11,CACCAGCG,-0.116
12,ATTGGCCC,-0.285
13,CCGCGGAC,0.129
14,AACACTGT,0.0459
15,AATGAGAG,0.0346
16,GAAGAGTC,-0.168
17,CCCTGATA,-0.155
18,ACGAGGGC,-0.0358
19,GCCTCATA,-0.172
20,AGGGCGAG,-0.256
21,AGTAATCC,0.229
22,ATGTTAAA,0.192
23,CATTGCCC,-0.203
24,ACGGATGG,-0.0904
25,GACAGCAA,0.0762

row,Sequence,PBM E-score
1,ACTGGTCG,-0.195
2,CTGGACCC,-0.227
3,ACGATCTA,-0.226
4,ACTCAAGC,0.0552
5,GATCGCAC,0.0818
6,CGGTAAAG,0.103
7,GATGTAGC,-0.234
8,GGAAGTCC,-0.16
9,ATCAGACC,-0.184
10,AATATGCA,0.0568
11,ATCGCAAC,0.0206
12,AATGAGCT,0.0384
13,TCTCACAA,0.0473
14,AAAGGCTC,-0.274
15,ACCTCTTA,0.153
16,CAGTTGGA,-0.242
17,CGTCGATA,0.119
18,ATCAAAAC,0.00993
19,GACTATCA,-0.0632
20,CTGATTCA,0.155
21,ATTTATCC,0.172
22,TAAAATTA,0.297
23,AGAACCCG,-0.174
24,ATCTCTAA,-0.0315
25,CCTTACGA,0.00401

row,Sequence,PBM E-score
1,TCATAACA,0.182
2,ACAGATCA,-0.0188
3,GGCGTGGA,-0.128
4,GAAATTAA,0.295
5,CACTCTCA,-0.0491
6,CACATAGA,-0.0808
7,CACAGACC,0.0247
8,AATCTAGC,0.08
9,GCATCAGC,0.0599
10,TCCCAAAA,0.117
11,TAGCATCA,0.137
12,CTCCGTTC,0.059
13,AGCAACTC,-0.0101
14,CGTCTCGC,0.017
15,ACGGCCAA,0.0134
16,AATCTGAA,-0.0163
17,CAAGCAGG,-0.133
18,CTACCACC,-0.249
19,GTGACCCA,-0.0539
20,CGTGCACG,0.106
21,ATCCGCGG,0.219
22,CCACCACC,-0.089
23,AATTGAAT,0.108
24,CGACCACC,-0.0864
25,GATGTTTA,0.196

row,Sequence,PBM E-score
1,ATAATAGA,0.00523
2,AATCGAGT,0.0822
3,CATACATA,0.161
4,AGACAGGC,-0.133
5,AAGGTCCT,-0.13
6,ATACACGA,-0.117
7,AGTGTTCG,0.113
8,AATAACGA,0.217
9,CGATACCC,-0.118
10,ACAGCTAT,-0.0503
11,CCGTCCTA,-0.176
12,GCTGTTAA,0.194
13,CAGTGACG,-0.0082
14,ACGCGTTG,0.0693
15,CCAGTTCG,0.0761
16,AGGAATCC,-0.0411
17,CTTACGCC,0.109
18,ATCGGGTA,-0.149
19,TACATCGA,0.0368
20,ACGCTGAC,0.3
21,GTACCAAC,0.0794
22,ATCGAAAC,0.0575
23,GCCTAAAA,-0.11
24,CCTGCGCA,-0.153
25,CAGGCCCA,-0.168

row,Sequence,PBM E-score
1,AGATGTGA,0.108
2,AAGCAATT,0.141
3,TATGAAGA,0.117
4,GCATTTTA,0.199
5,CGTGTGAG,-0.0767
6,GAATGATA,0.223
7,AAAACTCA,0.151
8,ACGGCACT,0.0453
9,CATCGACC,0.0718
10,CTTTCGCA,-0.016
11,ATCTAAAT,0.174
12,CTTCGGTC,0.0799
13,CGCCGGAG,-0.124
14,AACTAAAC,0.0556
15,GCCATCGA,0.129
16,CAGGAGGC,-0.167
17,CGGTCGTA,-0.123
18,GCAAAAGC,0.0393
19,GGGGTCCA,-0.257
20,ACGAGGCA,-0.0231
21,CAAGGTAG,-0.0118
22,CACGAGGC,0.0813
23,CGGCAAAA,-0.0316
24,GCCAACCC,-0.118
25,GAGGTTAA,-0.0435

row,Sequence,PBM E-score
1,ATTTTATC,0.156
2,AGAGGCCC,-0.288
3,AGCGATTC,-0.021
4,ACTCCTTG,-0.0525
5,ACGCTACC,-0.199
6,AAATACGA,0.159
7,CTGCTACC,-0.0444
8,CCATAGTA,0.0614
9,AGTGAACG,-0.0194
10,ATCGTGAC,0.0186
11,CAATTACC,-0.0374
12,GCTTAGTA,0.344
13,ATTCTCGA,0.198
14,GAAATGAC,0.154
15,AATTTTGC,0.181
16,AAGCCCTG,-0.149
17,AATATGCG,0.154
18,CCACTATA,0.146
19,GTTTCCGA,0.121
20,CCCATTCG,-0.0505
21,GCCGGAGC,-0.255
22,GCAGGACC,-0.23
23,CCATATGC,0.132
24,CAGCATCG,-0.0989
25,AGGGATTC,0.0269

# Part of the list above in another layout:
row | Sequence | PBM E-score
6 | ATACACGA | -0.117
7 | AGTGTTCG | 0.113
8 | AATAACGA | 0.217
9 | CGATACCC | -0.118
10 | ACAGCTAT | -0.0503
11 | CCGTCCTA | -0.176
12 | GCTGTTAA | 0.194
13 | CAGTGACG | -0.0082
14 | ACGCGTTG | 0.0693
15 | CCAGTTCG | 0.0761
16 | AGGAATCC | -0.0411
17 | CTTACGCC | 0.109
18 | ATCGGGTA | -0.149
19 | TACATCGA | 0.0368
20 | ACGCTGAC | 0.3
21 | GTACCAAC | 0.0794
22 | ATCGAAAC | 0.0575
23 | GCCTAAAA | -0.11
24 | CCTGCGCA | -0.153
25 | CAGGCCCA | -0.168
1 | AGATGTGA | 0.108
2 | AAGCAATT | 0.141
3 | TATGAAGA | 0.117
4 | GCATTTTA | 0.199
5 | CGTGTGAG | -0.0767
6 | GAATGATA | 0.223
7 | AAAACTCA | 0.151
8 | ACGGCACT | 0.0453
9 | CATCGACC | 0.0718
10 | CTTTCGCA | -0.016
11 | ATCTAAAT | 0.174
12 | CTTCGGTC | 0.0799
13 | CGCCGGAG | -0.124
14 | AACTAAAC | 0.0556
15 | GCCATCGA | 0.129
16 | CAGGAGGC | -0.167
17 | CGGTCGTA | -0.123
18 | GCAAAAGC | 0.0393
19 | GGGGTCCA | -0.257
20 | ACGAGGCA | -0.0231
21 | CAAGGTAG | -0.0118
22 | CACGAGGC | 0.0813
23 | CGGCAAAA | -0.0316
24 | GCCAACCC | -0.118
25 | GAGGTTAA | -0.0435
1 | ATTTTATC | 0.156
2 | AGAGGCCC | -0.288
3 | AGCGATTC | -0.021
4 | ACTCCTTG | -0.0525
5 | ACGCTACC | -0.199
6 | AAATACGA | 0.159
7 | CTGCTACC | -0.0444
8 | CCATAGTA | 0.0614
9 | AGTGAACG | -0.0194
10 | ATCGTGAC | 0.0186
11 | CAATTACC | -0.0374
12 | GCTTAGTA | 0.344
13 | ATTCTCGA | 0.198
14 | GAAATGAC | 0.154
15 | AATTTTGC | 0.181
16 | AAGCCCTG | -0.149
17 | AATATGCG | 0.154
18 | CCACTATA | 0.146
19 | GTTTCCGA | 0.121
20 | CCCATTCG | -0.0505
21 | GCCGGAGC | -0.255
22 | GCAGGACC | -0.23
23 | CCATATGC | 0.132

# (cont.)

row,Sequence,PBM E-score
1,CGCTGGCA,0.0579
2,CCTATTAG,0.0946
3,CCCCATAA,-0.117
4,ACGGCCGA,0.191
5,CAGCGTCG,0.0191
6,ATGTAAGG,0.0288
7,CCAGAGCC,-0.0798
8,GACTAATA,0.372
9,CGCTTCTC,-0.0668
10,GGAACTGA,-0.105
11,ACGGATAG,0.0118
12,CAAACCCG,0.0302
13,AGTTAGCC,-0.0174
14,GATCTATA,0.0879
15,CTGGCCAC,0.00652
16,ACCTGTCC,-0.157
17,GATTTGTA,0.228
18,CGCTTTAG,0.0748
19,GTTGTTGA,0.19
